{"source": "patent US20210315865A1", "about": "(Biohaven Therapeutics Ltd., priority 2018, published 2021)", "origin": "cited, not measured here", "details": "drug substance"}
{"smiles": "Nc1nc2ccc(OC(F)(F)F)cc2s1", "note": "[riluzole, 6-(trifluoromethoxy)benzothiazol-2-amine]", "values": [{"measurement": "chemical stability", "result": "pH dependent chemical stability"}]}
